From paper PMC8464874
No constants are given. Whether binding was seen depends on the method and setting. In cells and extracts the contact can be indirect. Some binding calls cover weakened binding; strength is not graded here.

The chains behind the UniProt entries cited, without tags or fusion partners. Where a name states a change or a piece, a line headed by the entry shows the natural chain unless it says otherwise. A line that says so, or that is headed by a name, gives the form on record, which may keep a tag or linker. Residues count along the entry.
UniProt P27986: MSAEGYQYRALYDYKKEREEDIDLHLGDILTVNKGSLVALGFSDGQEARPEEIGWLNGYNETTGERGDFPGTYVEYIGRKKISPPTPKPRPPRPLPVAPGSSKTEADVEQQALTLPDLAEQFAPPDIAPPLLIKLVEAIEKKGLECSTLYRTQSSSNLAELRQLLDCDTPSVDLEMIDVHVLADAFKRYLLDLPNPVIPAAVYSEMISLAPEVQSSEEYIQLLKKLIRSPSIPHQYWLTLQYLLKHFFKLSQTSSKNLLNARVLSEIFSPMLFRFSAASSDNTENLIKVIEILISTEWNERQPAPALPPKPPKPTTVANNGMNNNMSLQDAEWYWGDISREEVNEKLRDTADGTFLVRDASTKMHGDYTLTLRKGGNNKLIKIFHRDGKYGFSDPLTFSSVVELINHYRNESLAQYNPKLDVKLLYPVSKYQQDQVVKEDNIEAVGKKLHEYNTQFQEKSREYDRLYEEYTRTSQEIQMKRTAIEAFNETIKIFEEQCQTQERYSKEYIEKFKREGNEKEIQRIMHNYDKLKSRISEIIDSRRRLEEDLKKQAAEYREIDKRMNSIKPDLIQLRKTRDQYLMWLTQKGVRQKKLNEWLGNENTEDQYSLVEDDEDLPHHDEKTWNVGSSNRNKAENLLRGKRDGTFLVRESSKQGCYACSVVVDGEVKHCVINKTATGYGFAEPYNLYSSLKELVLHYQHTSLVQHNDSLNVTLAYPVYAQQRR
GST-fused SH3 domain of p85 (PI3-K): residues 3-79 of P27986
UniProt P06239, residues 127-224: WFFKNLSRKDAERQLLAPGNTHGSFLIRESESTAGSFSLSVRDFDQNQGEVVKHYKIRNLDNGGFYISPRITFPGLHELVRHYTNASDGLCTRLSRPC

Experiments:
[1] = biological target: GST-fused SH3 domain of p85 (PI3-K) (UniProt P27986); experiment: pull-down; 5 µg GST-fusion protein on Sepharose beads incubated 2 h at 4 °C with 200 µg lysate of osteoclasts treated with TNF-α and bone particles for 3-4 h; washed with lysis buffer and cold PBS; immunoblot with LPL and TRAF-6 antibodies; only the target purified
[2] = biological target: GST-fused SH2 domain of c-Src (UniProt P12931); experiment: as above
[3] = biological target: T1, TNF-α receptor 1 (TNFR1) (mouse (endogenous in osteoclasts)) (UniProt P25118); experiment: co-IP; lysates (RIPA buffer) of mouse osteoclasts untreated or treated with TNF-α and bone particles for 3-4 h, immunoprecipitated with an antibody to TNFR1 (nonimmune serum as control), immunoblot with TRAF-6 antibody
T1 sequence: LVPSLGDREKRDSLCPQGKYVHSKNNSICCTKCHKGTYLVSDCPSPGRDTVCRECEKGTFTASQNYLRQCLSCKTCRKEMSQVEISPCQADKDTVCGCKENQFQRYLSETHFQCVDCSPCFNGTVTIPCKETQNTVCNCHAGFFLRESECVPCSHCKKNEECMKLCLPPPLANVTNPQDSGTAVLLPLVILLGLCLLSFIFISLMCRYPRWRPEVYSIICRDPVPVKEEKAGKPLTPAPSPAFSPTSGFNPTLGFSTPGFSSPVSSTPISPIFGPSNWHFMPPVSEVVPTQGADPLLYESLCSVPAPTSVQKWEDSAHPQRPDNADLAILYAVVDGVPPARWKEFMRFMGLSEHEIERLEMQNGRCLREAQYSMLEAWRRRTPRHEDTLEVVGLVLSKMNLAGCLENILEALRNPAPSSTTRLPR

[4] = biological target: GST-fused SH2 domain of Lck (UniProt P06239); experiment: pull-down; 5 µg GST-fusion protein on Sepharose beads incubated 2 h at 4 °C with 200 µg lysate of osteoclasts treated with TNF-α and bone particles for 3-4 h; washed with lysis buffer and cold PBS; immunoblot with LPL and TRAF-6 antibodies; only the target purified
[5] = biological target: GST-fused full-length PI3-K (p85) (UniProt P27986); experiment: as above

Measured: binding

B1: TRAF-6 (protein, UniProt P70196 1-530)
chain: MSLLNCENSCGSSQSSSDCCAAMAASCSAAVKDDSVSGSASTGNLSSSFMEEIQGYDVEFDPPLESKYECPICLMALREAVQTPCGHRFCKACIIKSIRDAGHKCPVDNEILLENQLFPDNFAKREILSLTVKCPNKGCLQKMELRHLEDHQVHCEFALVNCPQCQRPFQKCQVNTHIIEDCPRRQVSCVNCAVSMAYEEKEIHDQSCPLANIICEYCGTILIREQMPNHYDLDCPTAPIPCTFSVFGCHEKMQRNHLARHLQENTQLHMRLLAQAVHNVNLALRPCDAASPSRGCRPEDPNYEETIKQLESRLVRQDHQIRELTAKMETQSMYVGELKRTIRTLEDKVAEMEAQQCNGIYIWKIGNFGMHLKSQEEERPVVIHSPGFYTGRPGYKLCMRLHLQLPTAQRCANYISLFVHTMQGEYDSHLPWPFQGTIRLTILDQSEALIRQNHEEVMDAKPELLAFQRPTIPRNPKGFGYVTFMHLEALRQGTFIKDDTLLVRCEVSTRFDMGGLRKEGFQPRSTDAGV
binds: [1] | [2] | [3]

B2: L-plastin (LPL) (protein, UniProt Q61233 1-627)
chain: MARGSVSDEEMMELREAFAKVDTDGNGYISCNELNDLFKAACLPLPGYRVREITENLMATGDLDQDGKISFDEFIKVFHGLKSTEVAKTFRKAINKKEGICAIGGTSEQSSVGTQHSYSEEEKYAFVNWINKALENDPDCRHVIPMNPNTDDLFNAVGDGIVLCKMINLSVPDTIDERTINKKKLTPFTIQENLNLALNSASAIGCHVVNIGAEDLKEGKPYLVLGLLWQVIKIGLFADIELSRNEALIALLREGESLEDLMKLSPEELLLRWANYHLENAGCTKITNFSTDIKDSKAYYHLLEQVAPKGDEEGIPAVVIDMSGLREKDDIQRAECMLQQAERLGCRQFVTATDVVRGNPKLNLAFIANLFNKYPALHKPENQDIDWGALEGETREERTFRNWMNSLGVNPRVNHLYSDLSDALVIFQLYEKIKVPVDWNRVNKPPYPKLGGNMKKLENCNYAVDLGKNQAKFSLVGIAGQDLNEGNRTLTLALVWQLMRRYTLNILEDIGGGQKVNDDIIVNWVNTTLKEAQKSSSIASFKDPKISTSLPVLDLIDAIQPGSINYDLLKTENLDDEEKLNNAKYAISMARKIGARVYALPEDLVEVNPKMVMTVFACLMGKGMKRV
not listed: [3]
binds: all other assays above
